Data from the supplement of paper PMC10849652.
The list shows a part of the results.

Amino acid sequences for entries named in this document (tags omitted). A change or cut given only in a name is not applied to a line headed by its entry.
UniProt P55795: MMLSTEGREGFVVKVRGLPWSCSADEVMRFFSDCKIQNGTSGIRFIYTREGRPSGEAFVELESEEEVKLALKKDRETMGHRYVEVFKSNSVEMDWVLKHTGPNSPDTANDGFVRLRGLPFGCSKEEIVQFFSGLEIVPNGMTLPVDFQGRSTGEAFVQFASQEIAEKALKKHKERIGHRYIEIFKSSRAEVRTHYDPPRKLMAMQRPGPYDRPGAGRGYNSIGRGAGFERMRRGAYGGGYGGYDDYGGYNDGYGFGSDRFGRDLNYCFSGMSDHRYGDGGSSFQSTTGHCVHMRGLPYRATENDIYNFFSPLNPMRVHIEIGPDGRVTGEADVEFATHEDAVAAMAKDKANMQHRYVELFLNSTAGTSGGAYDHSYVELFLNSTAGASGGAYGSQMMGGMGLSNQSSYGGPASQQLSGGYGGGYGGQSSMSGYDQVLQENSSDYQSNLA
UniProt Q5SSJ5: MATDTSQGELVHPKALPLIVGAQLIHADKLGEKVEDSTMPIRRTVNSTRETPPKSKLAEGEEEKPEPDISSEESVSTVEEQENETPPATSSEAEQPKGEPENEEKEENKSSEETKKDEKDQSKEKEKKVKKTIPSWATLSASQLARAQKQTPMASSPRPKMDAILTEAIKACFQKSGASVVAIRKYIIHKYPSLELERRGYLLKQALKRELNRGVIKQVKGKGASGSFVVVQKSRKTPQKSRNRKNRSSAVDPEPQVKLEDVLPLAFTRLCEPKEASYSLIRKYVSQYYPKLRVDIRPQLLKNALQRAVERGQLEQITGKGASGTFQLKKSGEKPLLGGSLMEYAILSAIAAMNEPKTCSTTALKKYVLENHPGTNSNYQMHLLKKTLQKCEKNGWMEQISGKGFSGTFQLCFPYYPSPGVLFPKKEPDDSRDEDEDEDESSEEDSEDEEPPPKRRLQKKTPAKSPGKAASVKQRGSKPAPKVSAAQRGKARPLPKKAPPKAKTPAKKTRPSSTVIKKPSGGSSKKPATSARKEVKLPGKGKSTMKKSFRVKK
UniProt Q8NBQ5: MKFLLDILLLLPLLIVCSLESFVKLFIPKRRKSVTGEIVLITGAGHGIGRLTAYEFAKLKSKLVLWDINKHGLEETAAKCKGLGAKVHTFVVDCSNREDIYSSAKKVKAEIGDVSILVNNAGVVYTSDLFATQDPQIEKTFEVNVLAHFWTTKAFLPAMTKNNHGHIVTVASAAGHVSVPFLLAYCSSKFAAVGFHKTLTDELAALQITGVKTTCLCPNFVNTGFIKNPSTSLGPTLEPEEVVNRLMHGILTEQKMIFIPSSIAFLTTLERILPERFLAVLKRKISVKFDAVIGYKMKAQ
UniProt P17096: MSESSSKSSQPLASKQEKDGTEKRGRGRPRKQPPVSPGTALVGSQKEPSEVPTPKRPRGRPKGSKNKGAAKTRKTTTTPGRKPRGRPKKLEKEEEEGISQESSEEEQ
UniProt Q2TB90: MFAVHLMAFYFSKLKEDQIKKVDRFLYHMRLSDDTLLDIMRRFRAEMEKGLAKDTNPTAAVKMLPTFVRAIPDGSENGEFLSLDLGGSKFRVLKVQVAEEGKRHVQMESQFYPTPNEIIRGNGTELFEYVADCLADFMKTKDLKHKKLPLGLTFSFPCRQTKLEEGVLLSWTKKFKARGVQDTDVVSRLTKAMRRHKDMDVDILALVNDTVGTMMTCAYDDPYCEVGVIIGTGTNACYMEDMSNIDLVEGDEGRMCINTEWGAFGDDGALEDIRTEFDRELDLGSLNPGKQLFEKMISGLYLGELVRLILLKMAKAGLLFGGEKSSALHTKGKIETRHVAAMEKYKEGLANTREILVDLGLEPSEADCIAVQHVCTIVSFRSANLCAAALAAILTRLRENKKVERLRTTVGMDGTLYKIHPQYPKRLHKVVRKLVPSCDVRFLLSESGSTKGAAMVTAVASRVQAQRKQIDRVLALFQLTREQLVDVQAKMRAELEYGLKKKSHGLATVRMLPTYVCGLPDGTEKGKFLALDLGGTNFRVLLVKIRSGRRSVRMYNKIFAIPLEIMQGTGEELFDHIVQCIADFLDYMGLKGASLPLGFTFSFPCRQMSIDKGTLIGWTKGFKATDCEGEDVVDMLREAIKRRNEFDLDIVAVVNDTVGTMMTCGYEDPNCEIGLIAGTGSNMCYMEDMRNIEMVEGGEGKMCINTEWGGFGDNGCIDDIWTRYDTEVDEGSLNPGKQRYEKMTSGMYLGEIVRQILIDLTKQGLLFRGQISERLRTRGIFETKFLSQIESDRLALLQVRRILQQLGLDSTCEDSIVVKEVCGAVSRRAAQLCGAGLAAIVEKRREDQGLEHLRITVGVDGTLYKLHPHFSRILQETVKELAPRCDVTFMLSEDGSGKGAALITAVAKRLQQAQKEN
UniProt P14625, whole entry, looked up: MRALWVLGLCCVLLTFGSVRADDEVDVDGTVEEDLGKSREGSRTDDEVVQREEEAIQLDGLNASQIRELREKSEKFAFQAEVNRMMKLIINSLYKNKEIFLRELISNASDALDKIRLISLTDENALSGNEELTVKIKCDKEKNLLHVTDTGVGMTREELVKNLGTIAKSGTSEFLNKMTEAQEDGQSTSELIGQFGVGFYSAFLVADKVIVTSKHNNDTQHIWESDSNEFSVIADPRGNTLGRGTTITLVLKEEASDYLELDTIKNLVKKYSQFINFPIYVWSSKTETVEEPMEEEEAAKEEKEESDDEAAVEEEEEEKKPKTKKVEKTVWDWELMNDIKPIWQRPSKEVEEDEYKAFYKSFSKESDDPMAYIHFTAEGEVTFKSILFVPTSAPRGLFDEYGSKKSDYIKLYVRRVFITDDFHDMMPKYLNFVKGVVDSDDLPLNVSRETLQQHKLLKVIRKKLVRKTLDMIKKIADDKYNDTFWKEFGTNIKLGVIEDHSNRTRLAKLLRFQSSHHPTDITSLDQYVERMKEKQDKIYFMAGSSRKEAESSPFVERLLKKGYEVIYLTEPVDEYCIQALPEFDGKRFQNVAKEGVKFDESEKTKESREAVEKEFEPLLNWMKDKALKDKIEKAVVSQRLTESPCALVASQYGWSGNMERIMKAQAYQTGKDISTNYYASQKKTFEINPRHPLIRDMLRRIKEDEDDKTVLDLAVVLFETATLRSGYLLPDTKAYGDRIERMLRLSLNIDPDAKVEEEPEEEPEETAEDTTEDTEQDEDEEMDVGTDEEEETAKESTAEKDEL
UniProt Q6NVY1: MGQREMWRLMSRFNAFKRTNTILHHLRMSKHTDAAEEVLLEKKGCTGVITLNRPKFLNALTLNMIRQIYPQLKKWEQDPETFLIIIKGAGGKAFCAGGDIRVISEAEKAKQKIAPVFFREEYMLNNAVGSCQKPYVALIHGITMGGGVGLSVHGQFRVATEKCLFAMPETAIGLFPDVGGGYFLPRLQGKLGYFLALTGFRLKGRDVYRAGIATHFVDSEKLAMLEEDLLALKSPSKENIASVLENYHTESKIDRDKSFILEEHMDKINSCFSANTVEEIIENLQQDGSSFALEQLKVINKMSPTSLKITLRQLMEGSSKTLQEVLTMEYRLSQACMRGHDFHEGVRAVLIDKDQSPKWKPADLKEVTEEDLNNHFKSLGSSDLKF
UniProt Q53GQ0: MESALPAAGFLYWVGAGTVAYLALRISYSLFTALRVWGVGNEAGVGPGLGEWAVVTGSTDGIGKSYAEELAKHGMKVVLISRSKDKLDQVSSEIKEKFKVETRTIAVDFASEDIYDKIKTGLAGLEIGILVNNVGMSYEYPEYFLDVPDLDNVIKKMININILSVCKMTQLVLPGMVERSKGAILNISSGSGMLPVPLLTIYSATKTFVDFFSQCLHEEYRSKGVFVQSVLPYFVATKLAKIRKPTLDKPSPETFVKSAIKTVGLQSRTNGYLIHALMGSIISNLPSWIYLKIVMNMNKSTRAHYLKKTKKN
UniProt Q14103: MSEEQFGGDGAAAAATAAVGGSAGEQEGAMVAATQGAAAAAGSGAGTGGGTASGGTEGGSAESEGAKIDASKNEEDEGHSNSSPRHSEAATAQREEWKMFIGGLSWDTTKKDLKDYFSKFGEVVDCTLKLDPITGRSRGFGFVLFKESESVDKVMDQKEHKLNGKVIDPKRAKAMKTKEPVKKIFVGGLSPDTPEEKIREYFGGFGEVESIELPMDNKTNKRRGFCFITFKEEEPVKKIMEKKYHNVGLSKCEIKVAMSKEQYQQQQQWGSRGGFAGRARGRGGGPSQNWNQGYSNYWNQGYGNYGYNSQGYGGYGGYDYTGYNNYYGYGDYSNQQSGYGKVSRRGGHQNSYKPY
UniProt Q99729: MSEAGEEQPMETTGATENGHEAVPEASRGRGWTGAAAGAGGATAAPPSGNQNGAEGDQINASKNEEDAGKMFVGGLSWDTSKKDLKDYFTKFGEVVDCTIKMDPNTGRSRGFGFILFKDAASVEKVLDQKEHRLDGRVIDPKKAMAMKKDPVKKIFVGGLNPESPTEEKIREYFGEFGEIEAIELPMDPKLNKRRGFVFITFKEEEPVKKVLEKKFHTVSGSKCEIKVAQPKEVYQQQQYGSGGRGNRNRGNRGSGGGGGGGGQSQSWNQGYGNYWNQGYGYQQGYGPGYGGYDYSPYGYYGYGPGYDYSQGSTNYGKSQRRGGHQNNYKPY
UniProt Q14773: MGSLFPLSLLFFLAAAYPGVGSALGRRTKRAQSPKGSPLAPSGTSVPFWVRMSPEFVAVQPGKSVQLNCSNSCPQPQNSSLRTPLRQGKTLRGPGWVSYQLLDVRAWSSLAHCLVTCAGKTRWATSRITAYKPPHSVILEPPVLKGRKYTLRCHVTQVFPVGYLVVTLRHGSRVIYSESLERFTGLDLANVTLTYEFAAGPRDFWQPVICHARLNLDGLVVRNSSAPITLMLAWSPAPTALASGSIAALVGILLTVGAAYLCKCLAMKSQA
UniProt P08238, whole entry, looked up: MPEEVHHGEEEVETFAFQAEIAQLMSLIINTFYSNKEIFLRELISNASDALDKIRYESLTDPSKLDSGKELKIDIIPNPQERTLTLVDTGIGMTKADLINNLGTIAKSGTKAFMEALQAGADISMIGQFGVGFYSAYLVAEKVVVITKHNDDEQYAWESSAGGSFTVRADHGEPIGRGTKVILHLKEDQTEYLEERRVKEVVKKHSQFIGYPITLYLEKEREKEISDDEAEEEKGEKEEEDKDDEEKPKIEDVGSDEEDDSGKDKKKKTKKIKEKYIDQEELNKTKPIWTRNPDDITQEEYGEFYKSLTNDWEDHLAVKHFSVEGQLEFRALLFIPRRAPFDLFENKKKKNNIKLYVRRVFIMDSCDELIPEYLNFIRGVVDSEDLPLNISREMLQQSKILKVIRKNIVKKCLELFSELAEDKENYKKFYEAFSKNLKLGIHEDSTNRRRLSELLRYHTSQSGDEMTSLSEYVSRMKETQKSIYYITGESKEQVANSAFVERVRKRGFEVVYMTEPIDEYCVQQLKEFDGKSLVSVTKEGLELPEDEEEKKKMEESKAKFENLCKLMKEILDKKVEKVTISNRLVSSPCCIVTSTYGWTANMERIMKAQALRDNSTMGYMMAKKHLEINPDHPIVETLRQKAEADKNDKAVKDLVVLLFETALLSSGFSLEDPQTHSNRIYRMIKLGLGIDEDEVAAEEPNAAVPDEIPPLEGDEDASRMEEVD
UniProt Q03014: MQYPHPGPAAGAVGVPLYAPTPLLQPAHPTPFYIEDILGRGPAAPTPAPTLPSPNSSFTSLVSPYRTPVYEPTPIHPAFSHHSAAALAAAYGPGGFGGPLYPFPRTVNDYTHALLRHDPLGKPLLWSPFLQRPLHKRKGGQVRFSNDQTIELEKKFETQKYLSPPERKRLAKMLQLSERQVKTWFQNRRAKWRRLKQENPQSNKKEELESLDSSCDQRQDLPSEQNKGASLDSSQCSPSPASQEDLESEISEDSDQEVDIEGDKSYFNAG

Legend:
Assay in all cases: log2 fold change, soluble protein after heating vs DMSO (PISA); higher = thermal stabilisation; K562 cells, 10 uM, 30 min; active = over 0.2 and 3.5 SD of the protein, either way, in both replicates (recomputed)
erlotinib = compound: C#Cc1cccc(Nc2ncnc3cc(OCCOC)c(OCCOC)cc23)c1 [erlotinib]
Summary of the method: (§1)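 Soluble protein was defined as the supernatant after 21,000xg for 90 min. It came from K562 cells at 2×10^6 cells/mL given 10 μM compound for 30 min, heated in aliquots for 3 min across 48°C-58°C, pooled, and extracted in PBS with 0.5% NP-40 at 4°C, and was quantified by TMTpro 16plex LC-MS/MS with equalised channel sums. Thermal stability against control samples, from duplicates, is reported as log2 fold change.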

[1] = compound: C/C(=N\NC(=O)C1=CC(=CC=C1)S(=O)(=O)N2CCOCC2)/C3=C(C=CC(=C3)Cl)O
Summary of the method: as §1

[2] = compound: C1=CC(=C(C=C1Cl)C2=NC3=NC=CN=C3C(=N2)NC4=CC=NC=C4)F
Summary of the method: as §1

[3] = compound: C1=CC(=CC=C1C2=NC3=C(N2)C=C(C=C3)C(=O)N)OC4=CC=C(C=C4)Cl
Summary of the method: as §1

[4] = compound: C1=CC2=C(C=CC(=C2)/C=C\3/C(=O)NC(=NCC4=CC=CS4)S3)N=C1
Summary of the method: as §1

[5] = compound: C1=CC2=NC=CN=C2C=C1/C=C/3\C(=O)NC(=O)S3
Summary of the method: as §1

[6] = compound: C1=CC=C(C=C1)C2=NC(=C(N2)C3=CC=NC=C3)C4=CC(=C(C=C4)Cl)O
Summary of the method: as §1

[7] = compound: C1=CC=C2C(=C1)C3=NNC4=CC=CC(=C43)C2=O
Summary of the method: as §1

[8] = compound: C1CCN(C1)C(=O)NC2=CC=CC(=C2)NC3=NC=C(C(=N3)NCCC4=CN=CN4)Br
Summary of the method: as §1

[9] = compound: C1CN(CCC1(CC2=CC=C(C=C2)Cl)N)C3=NC=NC4=C3C=CN4
Summary of the method: as §1

| Target | log2 fold change (erlotinib) | log2 fold change [1] | log2 fold change [2] | log2 fold change [3] | log2 fold change [4] | log2 fold change [5] | log2 fold change [6] | log2 fold change [7] | log2 fold change [8] | log2 fold change [9] |
| --- | --- | --- | --- | --- | --- | --- | --- | --- | --- | --- |
| HNRNPH2 (UniProt P55795) | inactive: 0.019 | inactive: 0.17 | inactive: 0.037 | inactive: -0.028 | inactive: 0.112 | inactive: -0.031 | inactive: -0.047 | inactive: -0.016 | inactive: -0.068 | inactive: 0.024 |
| HP1BP3 (UniProt Q5SSJ5) | inactive: 0.071 | inactive: -0.035 | inactive: -0.04 | inactive: 0.028 | inactive: 0.069 | inactive: 0.064 | inactive: -0.013 | inactive: -0.044 | inactive: 0.027 | inactive: -0.155 |
| HSD17B11 (UniProt Q8NBQ5) | inactive: -0.01 | inactive: 0.076 | inactive: 0.089 | inactive: 0.084 | inactive: 0.008 | inactive: -0.029 | inactive: -0.006 | inactive: 0.025 | inactive: -0.026 | inactive: 0.082 |
| HMGA1 (UniProt P17096) | inactive: -0.147 | inactive: -0.108 | inactive: -0.174 | inactive: 0.012 | inactive: -0.116 | inactive: -0.025 | inactive: -0.062 | inactive: 0.198 | inactive: 0.056 | inactive: -0.045 |
| HKDC1 (UniProt Q2TB90) | inactive: -0.011 | inactive: 0.065 | inactive: 0.029 | inactive: 0.011 | inactive: 0.02 | inactive: 0.066 | inactive: -0.042 | inactive: 0.01 | inactive: 0.019 | inactive: 0.024 |
| HSP90B1 (UniProt P14625) | inactive: -0.026 | inactive: -0.025 | inactive: 0.018 | inactive: -0.041 | inactive: -0.013 | inactive: -0.006 | inactive: -0.012 | inactive: 0.018 | inactive: 0.024 | inactive: 0.02 |
| HIBCH (UniProt Q6NVY1) | inactive: 0.003 | inactive: 0.101 | inactive: 0.072 | inactive: -0.021 | inactive: 0.054 | inactive: 0.014 | inactive: 0.06 | inactive: 0.015 | inactive: 0.015 | inactive: 0.002 |
| HMGN5 (UniProt Q5JSK9) | inactive: 0.202 | inactive: -0.257 | inactive: -0.071 | inactive: 0.058 | inactive: 0.299 | inactive: 0.067 | inactive: -0.365 | inactive: -0.15 | inactive: 0.02 | inactive: 0.038 |
| HMGN2 (UniProt P05204) | inactive: -0.02 | inactive: -0.01 | inactive: -0.255 | inactive: 0.034 | inactive: -0.125 | inactive: -0.039 | inactive: -0.052 | inactive: 0.059 | inactive: 0.011 | inactive: 0.019 |
| HSD17B12 (UniProt Q53GQ0) | inactive: 0.004 | inactive: 0.067 | inactive: 0.02 | active: 0.346 | inactive: 0.025 | inactive: -0.012 | inactive: 0.027 | inactive: 0.064 | inactive: -0.028 | inactive: 0.124 |
| HNRNPD (UniProt Q14103) | inactive: -0.102 | inactive: -0.029 | inactive: -0.251 | inactive: -0.035 | inactive: -0.097 | inactive: 0.003 | inactive: -0.05 | inactive: 0.069 | inactive: 0.075 | inactive: -0.086 |
| HNRNPAB isoform 3 (UniProt Q99729) | inactive: -0.093 | inactive: -0.162 | inactive: -0.253 | inactive: -0.005 | inactive: -0.064 | inactive: 0.025 | inactive: -0.1 | inactive: -0.008 | inactive: 0.086 | inactive: -0.092 |
| ICAM4 (UniProt Q14773) | inactive: 0.028 | inactive: -0.025 | inactive: -0.053 | inactive: -0.013 | inactive: 0.035 | inactive: 0.07 | inactive: -0.057 | inactive: -0.031 | inactive: -0.118 | inactive: 0.064 |
| HSP90AB1 (UniProt P08238) | inactive: -0.036 | inactive: 0.066 | inactive: 0.047 | inactive: -0.004 | inactive: -0.032 | inactive: -0.01 | inactive: 0.014 | inactive: 0.078 | inactive: 0.013 | inactive: -0.006 |
| HHEX (UniProt Q03014) | inactive: -0.043 | inactive: -0.206 | inactive: 0.069 | inactive: 0.044 | inactive: 0.008 | inactive: -0.022 | inactive: -0.044 | inactive: 0.037 | inactive: -0.004 | inactive: 0.022 |
